Results as given in PMC5807518.
No constants are given. Whether binding was seen depends on the method and setting. For part of these data: Binding seen in cells or lysates may run through a third protein. Some entries that bind do so weakly or less than the wild type. For part of these data: Tags and fused reporters may be left off the sequences shown. Each block holds one molecule with its values, some of them ahead of it.

Sequences of proteins named here, by UniProt entry; tags and fusion partners are left off.
UniProt Q8C6L5: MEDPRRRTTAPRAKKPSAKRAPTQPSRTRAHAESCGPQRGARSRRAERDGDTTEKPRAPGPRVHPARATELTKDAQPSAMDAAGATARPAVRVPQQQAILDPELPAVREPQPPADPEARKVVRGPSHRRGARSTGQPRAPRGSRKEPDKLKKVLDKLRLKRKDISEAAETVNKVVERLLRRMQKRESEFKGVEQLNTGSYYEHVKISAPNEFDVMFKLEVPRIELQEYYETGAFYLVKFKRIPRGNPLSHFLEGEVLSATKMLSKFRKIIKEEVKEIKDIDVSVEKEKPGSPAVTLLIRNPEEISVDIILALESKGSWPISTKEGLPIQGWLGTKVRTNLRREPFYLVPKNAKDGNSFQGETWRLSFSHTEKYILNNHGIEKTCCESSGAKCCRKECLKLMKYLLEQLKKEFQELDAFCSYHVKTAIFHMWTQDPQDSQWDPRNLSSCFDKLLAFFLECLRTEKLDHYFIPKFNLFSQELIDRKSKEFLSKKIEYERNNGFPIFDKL
UniProt Q14258: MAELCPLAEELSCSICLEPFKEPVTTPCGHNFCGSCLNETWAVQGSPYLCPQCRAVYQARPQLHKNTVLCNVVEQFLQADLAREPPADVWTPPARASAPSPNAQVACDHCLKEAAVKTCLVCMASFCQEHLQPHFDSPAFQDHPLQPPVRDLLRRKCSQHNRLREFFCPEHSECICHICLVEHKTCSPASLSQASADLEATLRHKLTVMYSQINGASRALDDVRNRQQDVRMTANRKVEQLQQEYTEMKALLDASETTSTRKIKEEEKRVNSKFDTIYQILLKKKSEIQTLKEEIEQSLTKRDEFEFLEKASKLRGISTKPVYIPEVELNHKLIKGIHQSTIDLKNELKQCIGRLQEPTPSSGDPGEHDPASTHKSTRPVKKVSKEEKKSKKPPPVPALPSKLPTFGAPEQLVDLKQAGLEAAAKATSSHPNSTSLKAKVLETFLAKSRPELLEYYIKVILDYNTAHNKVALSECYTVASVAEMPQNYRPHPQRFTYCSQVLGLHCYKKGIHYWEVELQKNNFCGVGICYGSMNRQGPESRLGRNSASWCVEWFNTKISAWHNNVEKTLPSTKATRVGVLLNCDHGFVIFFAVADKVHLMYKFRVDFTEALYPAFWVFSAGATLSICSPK

Key:
[1] = molecular target: cGAS-FLAG (cyclic GMP-AMP synthase, FLAG-tagged) (not stated (human or mouse cDNA cloned)) (UniProt Q8C6L5); assay: co-IP
[2] = molecular target: Full-length (FL) cGAS fused with maltose-binding protein (MBP) (mouse) (UniProt Q8C6L5); assay: pull-down; both purified

- binding [1]: no binding
Molecule: TRIM25-V5 (from UniProt Q14258 1-630)

- binding [1]: binds
B1: Mouse TRIM56-V5 (protein, UniProt Q80VI1 1-734)
chain: MNSKVSSPTLLEALSSDFLACKICLEQLHTPKTLPCLHTYCQDCLAQLDIGGQVRCPECREIVPVPAEGVAAFKTNFFVNGLLDLVKARAPGDVHSGKPTCALCPLVGGKSSGGPATARCLDCADDLCQACADGHRCSRQTHKHRVVDLVGYRAGWYDEEARERQASQCPQHPGEALCFLCQPCSQLLCKDCRLGPHIDHPCLPLAEAVRSRKPGLEELLAGVDSNLVELEATRVAEKEALALLREQAASVGTQVEEAAERILKSLLAQKQEVLGQLRALVEAAEEATRERLTKIERQEQVAKAAAAFARRVLSLGLEAEILSLEGAITQRLRQLQDAPWTSGPTRCVLPQLELHPGLEDKNCHLLRLIFEEPKQSPKDSGKGGAGTQGGDEAQGQGDDRTKIGKQGGAQPLTPKEGKDQNPQEDDGVFIERGNRPNKKKKCKGRGKSVSREPSPILRPNLEGSGLLPRPVFSWSFPTRMPGDKRSPRITGLCPYGPQEILVADEQNRVLKRFSLNGDYKGTVQVPEGCSPCSVAALQNAVAFSANAKLYLVSPDGEIQWRRSLSLTQSSHAVAAMPCGDRVAVSVAGHVEVYKKDGSLATRFIPGGKASRGQRALVFLTTSPQGNFVGSDWQQNSVVFCDGLGQVIWEYKGPGLHGCQPGSVSVDKKGYIFLTLREVNKVVILDPKGSLLGDFLTAYHGLEKPRVTTMVDGKYLVVSLSNGTIHVFRVRFPDS

- binding [2]: binds
B2: TRIM56 purified from HEK293T cells (protein, UniProt Q80VI1 1-734)
chain: B1 chain
